{
  "source": "paper PMC4054954",
  "about": "(Brain research, 2011)",
  "system": "HT-22 cells",
  "assay": "HT-22 cell-based glutamate cytoprotection assay",
  "set-up": "species or system murine",
  "conditions": "Mus musculus, HT-22, read-out: cytoprotective EC50",
  "data": [
    {"compound": "O=C(CCCN1CCC(O)(c2ccc(Cl)cc2)CC1)c1ccc(F)cc1", "note": "[haloperidol]", "values": [
      {"measurement": "EC50", "result": "5.9 ± 2.1", "unit": "nM"}
    ]}
  ]
}
